Measurements reported in PMC11809377.
No constants are given. Whether binding was seen depends on the method and setting. In cells and extracts the contact can be indirect. Some entries that bind do so weakly or less than the wild type. For some of these results: Tags and fused reporters may be left off the sequences shown.

Amino acid sequences for entries named in this document (tags omitted). Residues count along the entry.
UniProt Q02248: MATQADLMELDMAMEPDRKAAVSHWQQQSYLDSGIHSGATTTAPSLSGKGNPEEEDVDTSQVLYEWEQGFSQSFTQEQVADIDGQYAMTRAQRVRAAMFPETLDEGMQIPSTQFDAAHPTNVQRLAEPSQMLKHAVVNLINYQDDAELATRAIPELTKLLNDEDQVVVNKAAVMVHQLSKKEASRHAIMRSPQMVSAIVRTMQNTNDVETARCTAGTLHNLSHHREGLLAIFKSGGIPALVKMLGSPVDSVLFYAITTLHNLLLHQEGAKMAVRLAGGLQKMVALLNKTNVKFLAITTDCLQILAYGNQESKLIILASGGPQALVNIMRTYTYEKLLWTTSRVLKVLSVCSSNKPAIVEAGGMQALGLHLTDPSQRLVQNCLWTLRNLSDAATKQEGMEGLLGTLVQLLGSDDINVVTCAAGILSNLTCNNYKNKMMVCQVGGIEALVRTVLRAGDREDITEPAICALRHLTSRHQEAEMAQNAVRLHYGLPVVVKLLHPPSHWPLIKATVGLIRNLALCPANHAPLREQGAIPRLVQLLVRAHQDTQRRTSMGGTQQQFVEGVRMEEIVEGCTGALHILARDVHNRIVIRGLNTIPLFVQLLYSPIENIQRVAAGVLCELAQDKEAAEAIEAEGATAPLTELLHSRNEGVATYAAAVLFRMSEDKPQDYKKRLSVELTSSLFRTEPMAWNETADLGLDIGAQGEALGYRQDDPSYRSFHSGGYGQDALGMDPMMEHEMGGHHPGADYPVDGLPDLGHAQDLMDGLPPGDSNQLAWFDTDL
UniProt P15116, residues 160-906: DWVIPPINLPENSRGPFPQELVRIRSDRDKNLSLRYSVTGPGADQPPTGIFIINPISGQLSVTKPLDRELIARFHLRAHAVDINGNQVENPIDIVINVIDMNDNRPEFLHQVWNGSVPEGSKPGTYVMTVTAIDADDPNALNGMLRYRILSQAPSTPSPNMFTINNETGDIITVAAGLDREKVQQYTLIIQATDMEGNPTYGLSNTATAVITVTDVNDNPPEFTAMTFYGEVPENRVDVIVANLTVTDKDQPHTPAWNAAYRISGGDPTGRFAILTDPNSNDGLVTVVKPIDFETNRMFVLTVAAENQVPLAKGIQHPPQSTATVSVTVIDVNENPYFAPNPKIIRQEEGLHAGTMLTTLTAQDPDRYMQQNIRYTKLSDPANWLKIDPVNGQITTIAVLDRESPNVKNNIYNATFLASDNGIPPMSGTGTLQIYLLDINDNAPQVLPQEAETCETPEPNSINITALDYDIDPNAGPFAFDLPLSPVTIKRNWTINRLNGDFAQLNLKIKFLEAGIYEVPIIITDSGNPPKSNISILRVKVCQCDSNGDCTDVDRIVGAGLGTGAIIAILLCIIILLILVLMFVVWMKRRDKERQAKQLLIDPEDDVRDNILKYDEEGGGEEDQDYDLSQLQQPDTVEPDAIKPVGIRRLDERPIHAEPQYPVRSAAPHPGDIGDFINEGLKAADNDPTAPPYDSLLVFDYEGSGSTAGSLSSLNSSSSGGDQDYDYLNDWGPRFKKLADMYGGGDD
UniProt Q8VIM5: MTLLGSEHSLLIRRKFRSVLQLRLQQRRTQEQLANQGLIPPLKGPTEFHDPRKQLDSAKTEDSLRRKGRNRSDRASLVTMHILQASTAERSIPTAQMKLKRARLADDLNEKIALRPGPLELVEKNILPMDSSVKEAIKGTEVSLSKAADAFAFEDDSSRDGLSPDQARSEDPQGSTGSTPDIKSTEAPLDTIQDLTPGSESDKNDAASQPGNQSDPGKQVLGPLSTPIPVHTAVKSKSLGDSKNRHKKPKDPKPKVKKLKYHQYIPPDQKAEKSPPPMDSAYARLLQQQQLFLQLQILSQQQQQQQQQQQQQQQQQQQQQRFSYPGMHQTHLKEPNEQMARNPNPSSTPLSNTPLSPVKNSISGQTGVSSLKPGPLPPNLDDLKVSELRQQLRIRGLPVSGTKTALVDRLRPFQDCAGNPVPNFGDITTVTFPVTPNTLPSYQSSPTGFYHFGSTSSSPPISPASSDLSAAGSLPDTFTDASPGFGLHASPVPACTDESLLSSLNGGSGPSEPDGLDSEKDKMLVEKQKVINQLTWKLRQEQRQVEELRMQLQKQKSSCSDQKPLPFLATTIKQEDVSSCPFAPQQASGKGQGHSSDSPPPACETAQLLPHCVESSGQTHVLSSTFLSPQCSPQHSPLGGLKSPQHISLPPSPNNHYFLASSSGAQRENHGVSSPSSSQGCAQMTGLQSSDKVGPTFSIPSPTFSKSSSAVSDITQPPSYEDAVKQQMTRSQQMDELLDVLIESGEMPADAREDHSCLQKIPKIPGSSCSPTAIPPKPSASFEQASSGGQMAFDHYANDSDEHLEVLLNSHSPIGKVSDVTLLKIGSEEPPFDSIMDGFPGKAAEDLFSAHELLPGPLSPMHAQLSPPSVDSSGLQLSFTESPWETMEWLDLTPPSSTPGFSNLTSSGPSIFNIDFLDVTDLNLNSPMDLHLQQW

Legend:
[1] = target: T1, serum response factor (mouse (endogenous in primary mouse VSMCs and carotid arteries)) (UniProt Q9JM73); assay: co-IP; lysates (NP40 lysis buffer) of VSMCs, endogenous proteins; immunoprecipitated with anti‐β‐catenin or anti‐SRF antibodies, protein A&G agarose beads; also in cells with empty vector or LV‐TTK, p120‐wt or p120‐T310A, with or without 40 nM BC2059
T1 sequence: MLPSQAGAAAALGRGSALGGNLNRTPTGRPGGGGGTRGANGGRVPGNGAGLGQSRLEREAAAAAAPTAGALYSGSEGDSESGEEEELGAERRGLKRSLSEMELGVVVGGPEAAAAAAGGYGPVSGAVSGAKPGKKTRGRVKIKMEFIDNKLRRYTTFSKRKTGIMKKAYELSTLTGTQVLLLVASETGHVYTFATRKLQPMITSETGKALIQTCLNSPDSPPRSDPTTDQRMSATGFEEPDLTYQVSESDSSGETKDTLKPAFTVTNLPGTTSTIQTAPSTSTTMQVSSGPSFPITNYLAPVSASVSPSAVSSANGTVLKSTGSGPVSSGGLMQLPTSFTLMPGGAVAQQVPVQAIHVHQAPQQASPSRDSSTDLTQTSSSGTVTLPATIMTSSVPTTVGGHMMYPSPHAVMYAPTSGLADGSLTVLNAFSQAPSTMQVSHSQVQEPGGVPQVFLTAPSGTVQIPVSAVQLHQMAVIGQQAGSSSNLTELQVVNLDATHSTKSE

[2] = target: β‐catenin (mouse (endogenous in primary mouse VSMCs and carotid arteries)) (UniProt Q02248); assay: as above
[3] = target: T1, serum response factor (mouse (endogenous in primary mouse VSMCs and carotid arteries)); assay: co-IP; tissue lysates of injured carotid arteries of control and SMC‐specific Ttk knockout mice; NP40 lysis buffer, protein A&G agarose beads; immunoblotting
[4] = target: N‐cadherin (mouse (endogenous in primary mouse VSMCs and carotid arteries)) (UniProt P15116); assay: co-IP; lysates (NP40 lysis buffer) of VSMCs co‐transfected with empty vector or LV‐TTK and p120‐wt or p120‐T310A; immunoprecipitated with anti‐N‐cadherin antibodies, protein A&G agarose beads; immunoblotting
[5] = target: N‐cadherin (mouse (endogenous in primary mouse VSMCs and carotid arteries)) (UniProt P15116); assay: co-IP; tissue lysates of injured carotid arteries of control and SMC‐specific Ttk knockout mice; NP40 lysis buffer, protein A&G agarose beads; immunoblotting
[6] = target: T2, Hemagglutinin (HA)‐tagged TTK protein kinase (UniProt P35761); assay: co-IP; lysates (NP40 lysis buffer) of VSMCs transfected with the HA‐tagged TTK lentivirus; immunoprecipitated with anti‐HA, anti‐p120 or anti‐Irf2bpl antibodies overnight at 4 °C, protein A&G agarose beads; immunoblotting
T2 sequence: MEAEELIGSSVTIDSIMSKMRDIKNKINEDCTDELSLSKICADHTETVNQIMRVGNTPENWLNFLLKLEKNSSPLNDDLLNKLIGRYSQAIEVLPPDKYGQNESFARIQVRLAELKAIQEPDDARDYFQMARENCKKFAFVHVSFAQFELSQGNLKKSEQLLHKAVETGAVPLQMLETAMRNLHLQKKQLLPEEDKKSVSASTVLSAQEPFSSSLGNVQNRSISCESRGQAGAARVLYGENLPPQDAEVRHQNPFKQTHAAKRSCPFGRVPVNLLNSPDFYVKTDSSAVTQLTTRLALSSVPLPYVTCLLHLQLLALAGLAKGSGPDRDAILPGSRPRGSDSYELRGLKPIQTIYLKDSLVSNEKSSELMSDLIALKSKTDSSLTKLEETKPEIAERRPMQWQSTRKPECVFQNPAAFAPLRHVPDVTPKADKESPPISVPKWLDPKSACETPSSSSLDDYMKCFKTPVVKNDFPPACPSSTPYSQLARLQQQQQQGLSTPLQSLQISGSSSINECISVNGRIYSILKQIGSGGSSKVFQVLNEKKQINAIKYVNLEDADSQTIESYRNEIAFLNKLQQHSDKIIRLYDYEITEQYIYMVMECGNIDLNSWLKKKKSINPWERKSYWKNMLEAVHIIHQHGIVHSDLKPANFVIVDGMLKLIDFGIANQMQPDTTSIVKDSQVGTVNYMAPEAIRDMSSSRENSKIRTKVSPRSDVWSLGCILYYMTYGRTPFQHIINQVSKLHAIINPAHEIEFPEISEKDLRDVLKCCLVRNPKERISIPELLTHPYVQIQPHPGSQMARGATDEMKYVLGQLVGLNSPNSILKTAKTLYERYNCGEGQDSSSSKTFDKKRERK

For myocardin (from UniProt Q8VIM5 1-935), the binding [1] was “binds”, the binding [2] was “binds” and the binding [3] was “binds”.

β‐catenin (from UniProt Q02248 1-781) was tested, and the binding [4] was “binds” and the binding [5] was “binds”.

B1: p120‐catenin (protein, UniProt P30999 1-938)
chain: MDDSEVESTASILASVKEQEAQFEKLTRALEEERRHVSAQLERVRVSPQDANSLMANGTLTRRHQNGRFVGDADLERQKFSDLKLNGPQDHNHLLYSTIPRMQEPGQIVETYTEEDPEGAMSVVSVETTDDGTTRRTETTVKKVVKTMTTRTVQPVPMGPDGLPVDASAVSNNYIQTLGRDFRKNGNGGPGPYVGQAGTATLPRNFHYPPDGYGRHYEDGYPGGSDNYGSLSRVTRIEERYRPSMEGYRAPSRQDVYGPQPQVRVGGSSVDLHRFHPEPYGLEDDQRSMGYDDLDYGMMSDYGTARRTGTPSDPRRRLRSYEDMIGEEVPPDQYYWAPLAQHERGSLASLDSLRKGMPPPSNWRQPELPEVIAMLGFRLDAVKSNAAAYLQHLCYRNDKVKTDVRKLKGIPILVGLLDHPKKEVHLGACGALKNISFGRDQDNKIAIKNCDGVPALVRLLRKARDMDLTEVITGTLWNLSSHDSIKMEIVDHALHALTDEVIIPHSGWEREPNEDCKPRHIEWESVLTNTAGCLRNVSSERSEARRKLRECDGLVDALIFIVQAEIGQKDSDSKLVENCVCLLRNLSYQVHREIPQAERYQEALPTVANSTGPHAASCFGAKKGKDEWFSRGKKPTEDPANDTVDFPKRTSPARGYELLFQPEVVRIYISLLKESKTPAILEASAGAIQNLCAGRWTYGRYIRSALRQEKALSAIAELLTSEHERVVKAASGALRNLAVDARNKELIGKHAIPNLVKNLPGGQQNSSWNFSEDTVVSILNTINEVIAENLEAAKKLRETQGIEKLVLINKSGNRSEKEVRAAALVLQTIWGYKELRKPLEKEGWKKSDFQVNLNNASRSQSSHSYDDSTLPLIDRNQKSDKKPDREEIPMSNMGSNTKSLDNNYSTLNERGDHNRTLDRSGDLGDMEPLKGAPLMQKI
For B1, the binding [6] was “binds”.

B2: serum response factor (protein, UniProt Q9JM73 1-504)
chain: T1 sequence
In the case of B2, the binding [2] is reported as “binds”.
